PubChem BioAssay AID504774 | Drosophila RNAi Screening Center – 2011

Aim: 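Knock-downs that shift viability of MMS-exposed cells relative to untreated ones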 (primary screen)
Cells: Drosophila Kc167 cells
Reagent: long dsRNA against Drosophila genes, about 0.25 µg dsRNA per well
Time to read-out: about 6 days: 3 days knock-down, then 3 days with or without MMS
Challenge: methyl methanesulphonate 0.004% (w/v) for 3 days after knock-down
Detection: 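Viability in wells given MMS, read as ATP luminescence, normalised by quantiles plate by plate and averaged across replicates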
Reading the numbers: mean viability with MMS and viability with MMS: higher = more surviving cells after MMS
The screen tested about 23,000 reagents; below is an unselected part of those with a known target gene and a result. 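Values are quantile-normalised luminescence on an arbitrary scale; higher means more cells surviving MMS.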 Reagents against one gene are numbered here. A plus sign joins genes that one reagent is predicted to hit. Not all columns of the deposit are shown.

What did the screen give for JYalpha?
mean viability with MMS: 3.55e6; viability with MMS, replicate 1: 4.06e6

For caly, what was measured?
mean viability with MMS: 3.47e6; viability with MMS, replicate 1: 3.96e6

What did the screen give for Lac?
mean viability with MMS: 3.49e6; viability with MMS, replicate 1: 3.88e6

For Est-6, what does the deposit list?
mean viability with MMS: 3.63e6; viability with MMS, replicate 1: 4.04e6

For CenG1A #1, what does the deposit list?
mean viability with MMS: 3.75e6; viability with MMS, replicate 1: 4.11e6

With CenG1A #2, what does the deposit list?
mean viability with MMS: 3.86e6; viability with MMS, replicate 1: 4.16e6

How did the screen score CenG1A #3?
mean viability with MMS: 3.54e6; viability with MMS, replicate 1: 4.02e6

Which result is listed for CG43333 #1?
mean viability with MMS: 3.52e6; viability with MMS, replicate 1: 4.00e6

What is on record for CG43333 #2?
mean viability with MMS: 3.21e6; viability with MMS, replicate 1: 3.54e6

What did the screen give for CG40282 (retired record)?
mean viability with MMS: 3.51e6; viability with MMS, replicate 1: 4.03e6

What is on record for CG31678 #1?
mean viability with MMS: 3.35e6; viability with MMS, replicate 1: 3.78e6

Which result is listed for CG31678 #2?
mean viability with MMS: 3.70e6; viability with MMS, replicate 1: 4.18e6

Which result is listed for OS9?
mean viability with MMS: 3.49e6; viability with MMS, replicate 1: 3.94e6

For GstO2, what was measured?
mean viability with MMS: 3.48e6; viability with MMS, replicate 1: 3.90e6

What is on record for Cbp20?
mean viability with MMS: 3.32e6; viability with MMS, replicate 1: 3.84e6

With mGluR, what was measured?
mean viability with MMS: 3.48e6; viability with MMS, replicate 1: 3.88e6

With PQBP1, what does the deposit list?
mean viability with MMS: 3.45e6; viability with MMS, replicate 1: 3.94e6

What is on record for Est-P?
mean viability with MMS: 3.53e6; viability with MMS, replicate 1: 3.94e6

How did the screen score CG2310?
mean viability with MMS: 3.44e6; viability with MMS, replicate 1: 3.83e6

With Hr83, how do the results read?
mean viability with MMS: 3.50e6; viability with MMS, replicate 1: 3.93e6

With moi + Tgs1, how do the results read?
mean viability with MMS: 3.42e6; viability with MMS, replicate 1: 3.85e6

Which result is listed for Hph #1?
mean viability with MMS: 3.57e6; viability with MMS, replicate 1: 4.05e6

For Hph #2, what was measured?
mean viability with MMS: 3.39e6; viability with MMS, replicate 1: 3.89e6

Which result is listed for Pka-R1 #1?
mean viability with MMS: 3.49e6; viability with MMS, replicate 1: 3.93e6

For Pka-R1 #2, what was measured?
mean viability with MMS: 3.51e6; viability with MMS, replicate 1: 3.94e6

Reprinted from above, 2 entries:
CenG1A #2 — mean viability with MMS = 3.86e6; viability with MMS, replicate 1 = 4.16e6
CenG1A #3 — mean viability with MMS = 3.54e6; viability with MMS, replicate 1 = 4.02e6
